Test results as given in the supplement of paper PMC3334620.
The full ranking holds about 33,000 sequences; the median of “E-score (-0.5 to 0.5)” is about -0.015, and the highest 2% start at about 0.3. The list shows a part of the results.

Target: T1, Abf1 (UniProt P14164)
T1 sequence: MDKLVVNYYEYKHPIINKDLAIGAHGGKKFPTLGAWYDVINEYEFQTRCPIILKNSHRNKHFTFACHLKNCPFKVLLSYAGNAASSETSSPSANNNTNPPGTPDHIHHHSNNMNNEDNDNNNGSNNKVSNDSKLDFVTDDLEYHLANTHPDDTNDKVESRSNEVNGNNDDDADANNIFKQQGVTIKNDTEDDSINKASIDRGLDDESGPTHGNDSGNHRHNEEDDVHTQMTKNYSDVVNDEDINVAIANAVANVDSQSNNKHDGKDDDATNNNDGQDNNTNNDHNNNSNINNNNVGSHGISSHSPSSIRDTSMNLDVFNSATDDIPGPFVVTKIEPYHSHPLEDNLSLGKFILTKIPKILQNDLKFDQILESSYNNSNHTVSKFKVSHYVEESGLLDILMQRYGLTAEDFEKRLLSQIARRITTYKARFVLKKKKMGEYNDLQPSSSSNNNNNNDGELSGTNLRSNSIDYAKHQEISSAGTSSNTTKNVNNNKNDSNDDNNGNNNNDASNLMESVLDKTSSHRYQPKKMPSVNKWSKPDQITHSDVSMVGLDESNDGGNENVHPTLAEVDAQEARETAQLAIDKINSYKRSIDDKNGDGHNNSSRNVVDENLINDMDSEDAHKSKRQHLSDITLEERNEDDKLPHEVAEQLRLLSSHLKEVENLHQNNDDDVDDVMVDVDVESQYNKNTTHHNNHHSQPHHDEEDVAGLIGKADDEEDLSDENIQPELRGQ
Assay: PBM E-score (8-mer binding enrichment) (E-score (-0.5 to 0.5)); higher = stronger / more preferred TF binding
Conditions: protein concentration: 200 nM; construct: GST-full length
Method in brief: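 Yeast transcription factors carrying a GST tag, as full-length proteins or DNA-binding domains, were produced by PURExpress in vitro transcription/translation. About 100-200 nM protein was applied to universal all-10-mer Agilent arrays, double-stranded by primer extension on fresh or once-stripped slides. Bound protein was detected with fluorescent anti-GST, and scans were normalised with masliner. The Universal PBM Analysis Suite gave each ungapped eight-base word, pooled with its reverse complement, an E-score, a modified Wilcoxon-Mann-Whitney statistic.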

Sequence	PBM E-score
GGGAGCTA	-0.164
CGTACGCC	0.155
ATGAGTTG	-0.0628
CAATCAAG	-0.157
CACAGTTA	0.164
AAATCGCC	0.0447
ATGTAGAA	-0.0981
CGAAAAGA	0.0367
GTTGTAGA	0.163
CGTTGCTC	-0.123
ATCCCGCG	0.215
CGAATCGA	0.126
ACTAGGCG	0.00556
TGCAAACA	0.0172
CGTACACA	0.318
TGCGATAA	0.212
ATGTCACC	0.429
CGTGTCTC	0.164
AAGCAGAT	-0.108
ACGATACC	0.276
GTATGCAC	0.236
CACTTTTC	0.192
GATCGGCC	0.0329
CCGCCGCG	-0.17
ATCCTTTG	-0.00116

Sequence	PBM E-score
ACCTTTTA	0.0165
CCTGGATA	0.0319
ATGCCCGG	-0.174
AAAATCCT	-0.132
CGTCAACG	0.228
ACCAGCTC	-0.138
TCGGTAAA	0.112
CCTGCCGC	-0.0716
GATTGTGC	-0.0524
ACATCGCG	0.0131
TAAGTTAA	0.0411
ACTGACGA	0.305
AGATACTC	-0.0317
GAAAAATA	0.157
GCTGCCAC	-0.0485
AAGGACAT	0.0941
AGTCTCCG	-0.0466
GCAGTGTA	-0.0775
GAGTACTC	-0.117
ACAGGCCG	-0.00447
TGGTGGAA	-0.0333
AACACTCA	0.125
AGGAGCCA	-0.234
GTAAAAGA	0.18
TTCCTCAA	-0.177

Sequence	PBM E-score
ACAGCTGG	-0.122
CGAAGCAG	-0.15
AACCAGTG	-0.195
ACCAAAGT	0.0181
GAACCTTC	-0.153
GAAAGCGC	-0.0208
CACTGCAG	0.00434
CTAATTTA	0.168
CCTAGACG	0.213
ATGGCGTG	0.0483
AGATTCGC	-0.00717
ATACCACG	0.049
CACTTTAA	0.0944
CGTGTACA	0.261
GCCCCCCC	-0.447
AATTAGCT	0.00544
GATATTCA	0.177
CTGCGGAA	-0.207
AGCGCGAA	0.0206
ACGGATAT	0.228
CCAGGTCC	-0.162
TATTGACA	-0.0437
AGGGTTCG	-0.183
TCCTTGAA	0.022
AACACCGT	0.0172

Sequence	PBM E-score
GACCAGCA	-0.0777
ACAGCCCT	-0.12
CGACATCG	0.301
GTTATCTA	0.0953
CTCTCACC	-0.0855
CAACGTAC	0.267
AAGGCTTG	-0.136
CCCTCTTA	-0.00426
ACGCATGC	0.0823
CCAGCGGA	-0.185
ACTAAATA	0.268
CGATAGCG	0.0434
AACATAGC	-0.162
GCATAGGC	-0.255
CACATCCA	0.0403
AGGGGTAT	-0.179
CTATAATA	-0.0104
CAAGCATA	0.0834
GTCGCGGA	0.159
CTCGGAAA	-0.0502
CTTGCAGA	-0.0602
GGATGTTA	-0.0382
ACGCCGTA	0.245
CCAAATAC	0.00396
ACAACACT	0.147

Sequence	PBM E-score
CATTTAGG	-0.0739
AGCTGGTG	-0.174
CCTTAAAG	-0.00146
CATGGCGG	-0.0941
ATACAGAA	0.103
CCGTGGCG	0.164
CGCGGCTC	-0.186
CCGTTCGA	0.209
CTGCAGAA	0.0288
GATTATGA	0.156
CAAGTTCA	-0.117
GCTTCGGA	0.0157
AACCACGA	0.0664
CAGATGCA	-0.256
AGAAACAA	0.0151
CTTGCAAA	0.115
GAATTGTA	0.114
CATAACCC	-0.0577
ACCGGTTA	-0.0599
CCCGCCGA	-0.121
ACATTAAG	0.12
ATAATCGC	0.107
GGAGGCTA	-0.164
CCCAAGGC	-0.264
GTTGGGTA	-0.103

Sequence	PBM E-score
CCAAAAAG	-0.0139
GTGTTATA	0.174
AATTTTAC	0.127
ACCACGGG	-0.0851
GCGAGCGA	0.143
ACCCTCAG	0.0149
AATGTGGC	-0.038
AAGATACT	0.068
ATCGCATG	0.0504
ATAATGTG	0.08
AATAGATT	0.0836
CACCCTAG	0.0352
CGATTAAG	0.166
ACGACAGC	0.24
CGTATAAG	0.349
ATCTGACG	0.091
GAAAACAC	0.142
AGTTAATC	0.161
AGTCAACG	-0.149
ATGGAACG	0.051
CTTAGTAC	0.128
AGAGGTGA	0.153
ATCCAGAC	-0.194
GCACCAAA	0.0446
ACAGTTAA	-0.0458

Retrieved one by one from the entries so far:
Sequence	PBM E-score
GAATTGTA	0.114
CCTGGATA	0.0319
AGGAGCCA	-0.234

Given comma-delimited: entries from further up.
Sequence,PBM E-score
GAAAACAC,0.142
AGTTAATC,0.161
AGTCAACG,-0.149

Quoted from the listing:
Under PBM E-score, GCAGTGTA is entered as -0.0775
Under PBM E-score, GACCAGCA is entered as -0.0777

More results

Sequence	PBM E-score
ACGCCCTA	0.0717
AGCCGTGA	0.292
AGTTGCGG	-0.147
ATTAGGAC	0.0986
TCTTACAA	0.00801
GTTAATCA	0.235
ACGGGAGG	-0.0941
CAACGAAA	0.23
CGGCCCTA	-0.137
GTAAACTA	0.16
GCCGCTCA	-0.154
GCACCAGC	-0.35
CCAAGTTC	-0.266
GTGTTCCA	-0.00174
AACACTTC	0.0653
GCCCGGGA	-0.176
CCCCGCGC	-0.205
CTATGGGC	-0.0463
ATCGGCAC	0.0131
ACCACCCT	-0.149
AAATGGAG	0.0525
GGCCTTCA	-0.107
